Laboratory results: PMC6127886
These are yes or no findings as the source states them, for the method shown. Some entries that bind do so weakly or less than the wild type.

Molecular target: epidermal growth factor-like protein 7 (EGFL7), recombinant purified (UniProt Q9UHF1)
Experiment: negative-stain transmission electron microscopy; purified recombinant EGFL7 on a glow discharged carbon-coated grid, stained with uranyl formate, JEOL 1400Plus at 120 kV; class sums of 10-30 particles; both purified

B1: epidermal growth factor-like protein 7 (EGFL7), recombinant purified (protein, UniProt Q9UHF1 24-273)
chain: YRPGRRVCAVRAHGDPVSESFVQRVYQPFLTTCDGHRACSTYRTIYRTAYRRSPGLAPARPRYACCPGWKRTSGLPGACGAAICQPPCRNGGSCVQPGRCRCPAGWRGDTCQSDVDECSARRGGCPQRCVNTAGSYWCQCWEGHSLSADGTLCVPKGGPPRVAPNPTGVDSAMKEEVQRLQSRVDLLEEKLQLVLAPLHSLASQALEHGLPDPGSLLVHSFQQLGRIDSLSEQISFLEEQLGSCSCKKDS
For B1, the binding was “binds”.
